Results taken from patent US20160368951A1.
Results are given in words; binding and its absence hold for the method and conditions named. Some binding calls cover weakened binding; strength is not graded here.

By UniProt entry, the sequences of proteins in these tests, tags left out. Residues count along the entry.
UniProt P01556, residues 22-124: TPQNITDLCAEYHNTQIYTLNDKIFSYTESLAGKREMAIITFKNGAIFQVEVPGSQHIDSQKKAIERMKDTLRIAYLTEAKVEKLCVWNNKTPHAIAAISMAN

Biological target: CTB expressed in yeast (UniProt P01556)
Assay: expression in a yeast system, molecular weight of the pentamer

**Q.** How did the binding turn out when “CTB expressed in yeast (from UniProt P01556 22-124)” was run?
**A.** Its binding is “binds”.
